Reference: PubChem BioAssay AID1347423 (Functional Genomics Laboratory (NCATS/FGL), 2020)
The whole screen tested about 52,000 sequences, of which about 210 (0.4%) were called active.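 How the source made its calls: active means gene whose silencing raises cell survival under the drug, median off-target-corrected z-score across its silencing RNAs 2 or more; inactive means the rest.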 This is one part of the list.

Test: Resistance to Poly (ADP-Ribose) Polymerase inhibitor: Gene Identification via Genome-wide siRNA Screen
Settings: mouse BRCA2 R2336H ES cells, olaparib, CellTiter-Glo viability; stronger effect = higher value
Procedure, shortened: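 Genome-wide siRNA screen (3 siRNAs/gene, 20 nM) in mouse ES cells carrying hypomorphic BRCA2 R2336H; olaparib 500 nM added 48 h post-transfection, CellTiter-Glo viability 72 h later. Normalized to plate-median negative control; MAD z-scores, gene median, seed-adjusted.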

Sequence	z-score
GGGAUAAUGCAUGUGAAAATT against Pdk3	inactive: -1.67
CGAAUUAUGGCACCGUCAATT against P2rx7	inactive: 2
CGUAGACUUAACCUACAAATT against Dnchc2	inactive: 0.927
CCAUGAAUGAAGAUCUGUUTT against Taar7a	inactive: -1.61
GCCUCCAGUUGUGAAGUUGTT against Klrg1	inactive: 0.966
CCCUAAAAACACCUGAGAGTT against BC025105	inactive: -1.69
CCAACAGAACCAAUAAAGCTT against Btbd9	inactive: 0.625
CCAUUCUACACUUUUCCACTT against 2310043L02Rik	inactive: -0.942
GGAGCAUUCUCCAUCUAGCTT against 2010308M01Rik	inactive: -0.599
GGUUAUUUAGCUAGCUUAGTT against Capza2	inactive: 0.306
GCAGUUCAUGUCCUGAAUATT against Olfr308	inactive: -0.0596
GGUGUAAUGUCUUUGCUAATT against Spag6	inactive: 0.558
GGUACCUUAAACUCAUGAATT against Ifnb1	inactive: 1.41
GGGUUUCAACCGUCACCUGTT against Pygl	inactive: -0.885
GCGUGAACCUCCUUCUUGATT against Ramp3	inactive: -0.741
GGACUUGAAAGACCUUGGATT against Map2k4	inactive: -0.358
GAUAUUCCUGCUCACAGUGTT against Olfr1265	inactive: 1.19
GGAAUGUCAGUCAACACCGTT against Tcfap2b	inactive: -0.46
GGGAGUAUAAGAGAAACCATT against Chgb	inactive: -0.988
CGGCAGCAGAAUAAAUAUGTT against Il12b	inactive: -0.151
CCGUGAAUAAGGUCAUCUUTT against Tesp1	inactive: 0.672
CCAUUUACCUCACUUGUUUTT against Asb8	inactive: 0.749
GGAAAGAUUGUACCAGUUGTT against 0610011D08Rik	inactive: -1.18
GGAAGAAAGGUCUAGAAGCTT against Tor2a	inactive: 0.725
GGCAAAGAUUCCAAAAGAGTT against 1110063F24Rik	inactive: 1.2
GGUUGGCAUCAACUACCAATT against Tuba4	inactive: 0.304
GGUCUUCUACUCCUUCUCATT against Slc6a19	inactive: -1.35

Sequence	z-score
GGAACAAAGGAUGAUAAUUTT against 2610016F04Rik	inactive: -0.861
GGAACACAAAAGCAAAGAUTT against 1110021E09Rik	inactive: -1.49
GCUAGGAGAACCUACAUACTT against Adcy4	inactive: -0.848
GGUACAAGACUGUCAUGUGTT against Mrpl3	inactive: 0.789
GCCCAGCUCAAAUCUCCAUTT against 9230102D03Rik	inactive: -0.18
GGAUGUAUCUGAACAAUACTT against Gbl	inactive: 0.599
CCUGCUUAUUUAUGUACGATT against Tob2	inactive: -0.0512
GCCUUGACUGACAGACCCATT against Zfp114	inactive: -0.642
GGGUUUUAUCUGUAGUACATT against 5830417I10Rik	inactive: 0.313
GGCAAAAAGGAAUUUCGGCTT against Padi2	inactive: 0.909
GGGAACUGUACUGUAAUUUTT against Olfr615	inactive: -1.19
CCGAAGUGCCAUGCCAUUUTT against Pdlim1	inactive: -1.7
CCAGUAUGGAAGGUACUCATT against Scfd1	inactive: -0.348
GGGAUAGCACAAGUGAGUCTT against Slc13a3	inactive: -0.0761
GGGCAACUAUCCCGUUACUTT against Vps11	inactive: 0.368
GCACAUAUGUUUGUUAAGCTT against D930025H04	inactive: 0.744
GGACCUGUUUGAAGAAAAGTT against Gnai2	inactive: -0.66
GGAUAAACUGUAUGGCUUCTT against Mmp9	inactive: 1.51
GGACGUAGCUUGGAAAGAUTT against Flcn	inactive: -1.57
CGGAGCCUAUAACAUAUUUTT against Nid1	inactive: 1.14
CCUAGCUAAUAAAACAUGUTT against Ltb4dh	inactive: 0.0062
GCACUUUUCAGUGAUAACATT against 2410018M08Rik	inactive: -0.631
GGGAAAAAUAAACUAAGUGTT against Rwdd1	inactive: -1.93
GGUGAGCGAGAUAAGAAGCTT against Ube2s	inactive: 0.4
GUGGUCGGAAACACAAAGATT against Snrp1c	inactive: -3.13
GGUCAGCAUCACCUACGAUTT against Prss8	inactive: -0.576
GGUAGUGGAGCUGAAUGUUTT against Kctd8	inactive: -1.94

Sequence	z-score
GGGUUACCCAGCAUUCUUUTT against Pex26	inactive: -0.0448
CGUGGAAGACAUACAACCCTT against 5930418K15Rik	inactive: 1.22
GGAUGGUACAGGUCUGGUGTT against Fgfr3	inactive: 1.37
CCUAUAUCAACAUUAGAGATT against 9330174J19Rik	inactive: 0.114
GGCCACAGAUCUUCUGGUGTT against Calml4	inactive: 0.529
GGAAAUGAACAGAAAUCACTT against Wdr4	inactive: 0.858
GGAUGACGAUUAUAGAGAATT against Cap2	inactive: -0.575
GCAUGAGUUAUCAUAAUCATT against Itgb2	inactive: 0.203
GGAGCUUUAUUUUAUACCUTT against Ppil2	inactive: 1.23
GGAAGAAGUCUGAUACAUCTT against E130306M17Rik	inactive: 0.0313
GGUGAGAUGGUUCAACAUGTT against Olfr77	inactive: -0.497
GGAUAUUACUCUGUUGAAATT against Ppp2ca	inactive: 0.929
CCUCUUAUACCUUUAACUCTT against Skd3	inactive: 1.15
GGAGUACCUGGAGUUCUUCTT against Zbtb7	inactive: 0.679
GGAGUUUGAGAUCAUCUUCTT against Nxn	inactive: 0.479
GGUCUGCAUUUGCUUUCCUTT against Olr1	inactive: -1.91
CCUCUGUGAUUUCAUUCUUTT against Hhip	inactive: 0.539
GGUUCAAGGUGAAGACUCCTT against Pap	inactive: -1.06
GGGAGAAACCAAGGAACUCTT against 2410080P20Rik	inactive: 0.319
GGACAAUGGGCAAGUCACCTT against Rnase1	inactive: 0.649
CCCUCAUGUUUAGCGAGCATT against Kcnj3	inactive: 0.481
GGUACAAGCACUCCUGGAATT against Ccs	inactive: -0.508
GGAGCUCCUACCAAGACUUTT against 8230402K04Rik	inactive: -0.0778
GGAAGACGUAUUUGUACACTT against Nsep1	inactive: 0.551
GGAAAAGUGCAUUUUGCUGTT against Tex261	inactive: -0.5
GGGUUUCUGUAAUGACUAUTT against Zfp113	inactive: -1.87
CCGACCAAUGCAUUGACAATT against Lcn2	inactive: 0.265

Two entries drawn at random from the list so far, as already listed:
Sequence	z-score
GGCCACAGAUCUUCUGGUGTT against Calml4	inactive: 0.529
GGGAGAAACCAAGGAACUCTT against 2410080P20Rik	inactive: 0.319

(further entries)

Sequence	z-score
GGGUGUGCCUGAAUUACACTT against Ubn1	inactive: -1
GGAAAAAUGCGAACUUACUTT against Npr2	inactive: 1.04
GGGUGCAUUUUAAAUACUATT against Spred2	inactive: -0.641
GGACUUGUGGCUCAUUGAGTT against BC023754	inactive: -0.0781
CCGGGUACAGUCUUUUUGGTT against 8030466O12Rik	inactive: -1.25
GGAUCUAUUGAUGGUUCAUTT against 1810034M08Rik	inactive: -1.6
GGCUGUGGUUGUAUCAUGATT against C2b	inactive: 0.255
GGAACAGGACAAUGACAGUTT against Gzme	inactive: -0.833
GCGCAAGCCGUAUUCGAAGTT against Hoxc12	inactive: -0.217
GGGUUGGAAAGGUAUCUUATT against Timp4	inactive: 0.934
GUUUUAGGCAACCUUGGGUTT against Olfr1038	inactive: 0.364
GGCCUUGUACACUUUGAUGTT against 1110057K04Rik	inactive: 0.71
UCCAGAGGAUCCGCUGUGATT against Kb37	inactive: -1.11
GGCAAUAACCAGUAAAUGUTT against AV284857	inactive: -1.75
GGGUGGUUGUAAAAAUUCUTT against Csnk2a2	inactive: 2.36
GCUUCUAAAUUUGGUUCUGTT against 9830163H01Rik	inactive: -0.157
GCACUAUGGUCCAUAUUAUTT against Olfr154	inactive: -0.715
CGGCAGGACAAAUCUAGAUTT against 9830134C10Rik	inactive: -0.541
GGUAUACUAGUUUGAAGAGTT against Rpl21	inactive: 1.13
GGAAGUACUUCGAUGAAAATT against Bdh	inactive: 0.215
GGAUAAAGUACUCCAUUAATT against B930067F20Rik	inactive: -2.51
CCCUCAAUGGCCUCAAACUTT against Elavl3	inactive: 1.79
GCACCAAGGAGUUUCAUUUTT against Acadm	inactive: -0.28
GGAACAGGUGAUCCGCUACTT against Lzts2	inactive: 0.495

Taken from above:
CGUAGACUUAACCUACAAATT against Dnchc2 – z-score: inactive: 0.927
GCCCAGCUCAAAUCUCCAUTT against 9230102D03Rik – z-score: inactive: -0.18
GGGAGUAUAAGAGAAACCATT against Chgb – z-score: inactive: -0.988
GGUCAGCAUCACCUACGAUTT against Prss8 – z-score: inactive: -0.576
GGUAUACUAGUUUGAAGAGTT against Rpl21 – z-score: inactive: 1.13
GGGAACUGUACUGUAAUUUTT against Olfr615 – z-score: inactive: -1.19
GGACAAUGGGCAAGUCACCTT against Rnase1 – z-score: inactive: 0.649
